Data reported in patent publication US12649755B2, “Plasmin inhibitor, preparation method therefor and application thereof” (SCINNOHUB PHARMACEUTICAL CO., LTD, priority 2020, dated 2026).
At least one compound was matched to its structure with a doubt left.

Tested on: plasma clots (human plasma, tPA-induced lysis)
Experiment: Plasma clot lysis assay
Format: biochemical
Excerpt: To determine the inhibitory effect of the compounds of the invention on the degradation of plasma clots.
3. […] The time corresponding to the median of the absorption value in the descending section-the time corresponding to the median of the absorption value in the ascending section is the plasma clot degradation time (Clot lysis time).
Taking the log value of the compound concentration as the X-axis, and the percentage inhibition rate as the Y-axis, and dose-response curves were fitted with the software GraphPad Prism 5 by using log (inhibitor) vs. Response-Variable slope to derive IC50 values of compounds inhibiting the degradation of plasma clots. Y=min+(max−min)/(1+10^((LogIC50−X)×Hillslope). Formula: […]

SMILES: Cl.O=P(O)(O)c1ccc2c(n1)C(N1CC[S+]([O-])CC1)CNC2 (stereo not shown) [Example 10, (8-oxidothiomorpholino-5,6,7,8-tetrahydro-1,6-naphthyridin-2-yl) Phosphonic Acid Hydrochloride]
- IC50 ratio (IC50 Examples/IC50 Tranexamic acid): 0.17
